Data source: PubChem BioAssay AID1053208 (Peter MacCallum Cancer Centre, 2014)

Aim: 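Genes whose silencing cuts survival of bone tumour cells only with doxorubicin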 (primary screen)
Cell system: mouse osteosarcoma cells, early-passage culture from an engineered mouse model of fibroblastic bone tumour
Reagents: siRNA pool against mouse genes, 40 nM
Timing: about 120 h (48 h before drug, then 72 h with drug)
Conditions: doxorubicin 100 nM for 72 h, roughly 30-40% inhibitory dose
Read-out: 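Viability read as ATP luminescence after 72 h of 100 nM doxorubicin or none, duplicate wells averaged, scaled to non-targeting siRNA, then expressed as robust z-scores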
Direction: viability z-score with doxorubicin and doxorubicin viability vs non-targeting: higher = more viable cells under doxorubicin; viability z-score without drug: higher = more viable cells with knock-down alone; z-score of drug to no-drug ratio: higher = less drug sensitisation by knock-down
Active means: 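a pool counts as active when its viability z-score with doxorubicin is -2 or below and its z-score without drug lies between -2 and 2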
The whole screen tested about 17,000 reagents; this is a part drawn at random. Over the whole deposit, 788 (4.7%) are marked active. 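Calls rest on z-score classes alone; an extra cut-off of viability at most 70% of control was not applied to them.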

| target | combined z-score class | viability z-score with doxorubicin | viability z-score without drug | z-score of drug to no-drug ratio | doxorubicin viability vs non-targeting | call |
| --- | --- | --- | --- | --- | --- | --- |
| Vps26a (GeneID 30930) | no change with or without drug | -0.45 | 0.84 | -0.9 | 0.9 | inactive |
| Or4a70 (GeneID 258970) | no change with or without drug | 0.67 | 0.51 | 0.45 | 1 | inactive |
| Or5p79 (GeneID 258738) | no change with or without drug | -0.34 | 0 | -0.22 | 0.91 | inactive |
| Vmn1r42 (GeneID 113848) | no change with or without drug | 0.22 | 0.51 | 0 | 0.96 | inactive |
| Pygb (GeneID 110078) | no change with or without drug | 0.56 | -0.51 | 1.12 | 0.99 | inactive |
| Mfap1a (GeneID 67532) | no change with or without drug | -1.35 | -0.84 | -0.79 | 0.82 | inactive |
| Nudt14 (GeneID 66174) | no change with or without drug | -0.45 | -0.51 | 0 | 0.9 | inactive |
| Calm3 (GeneID 12315) | no change with or without drug | 0.22 | 0.67 | -0.11 | 0.96 | inactive |
| Epn2 (GeneID 13855) | no change with or without drug | -0.22 | 0.17 | -0.22 | 0.92 | inactive |
| Atxn1 (GeneID 20238) | no change with or without drug | 0 | 0.34 | -0.11 | 0.94 | inactive |
| Scg5 (GeneID 20394) | no change with or without drug | -0.22 | -1.01 | 0.56 | 0.92 | inactive |
| Or8c13 (GeneID 258471) | no change with or without drug | -0.67 | 0.67 | -1.01 | 0.88 | inactive |
| Or51b4 (GeneID 18367) | no change with or without drug | -1.35 | -0.51 | -1.01 | 0.82 | inactive |
| Atp13a2 (GeneID 74772) | no change with or without drug | 0.67 | 0.51 | 0.45 | 1 | inactive |
| Or2z2 (GeneID 18329) | no change with or without drug | -1.35 | -0.67 | -0.9 | 0.82 | inactive |
| Ccdc82 (GeneID 66396) | low cell count with doxorubicin only | -2.59 | 0.84 | -3.04 | 0.71 | active |
| Fndc7 (GeneID 320181) | no change with or without drug | -0.9 | 1.35 | -1.69 | 0.86 | inactive |
| Pappa (GeneID 18491) | no change with or without drug | -0.22 | -0.84 | 0.45 | 0.92 | inactive |
| Mat2a (GeneID 232087) | low cell count with doxorubicin only | -2.36 | -0.34 | -2.25 | 0.73 | active |
| Slc7a4 (GeneID 224022) | no change with or without drug | 1.12 | 1.18 | 0.45 | 1.04 | inactive |
| Cpsf1 (GeneID 94230) | no change with or without drug | -0.11 | 0.34 | -0.22 | 0.93 | inactive |
| Clec2d (GeneID 93694) | no change with or without drug | 0.9 | -0.17 | 1.24 | 1.02 | inactive |
| Dmd (GeneID 13405) | no change with or without drug | 0.67 | 1.52 | -0.22 | 1 | inactive |
| Ate1 (GeneID 11907) | no change with or without drug | 0.45 | -0.17 | 0.67 | 0.98 | inactive |
| Gnas (GeneID 14683) | no change with or without drug | -0.67 | -0.51 | -0.22 | 0.88 | inactive |
| Fam131a (GeneID 78408) | no change with or without drug | 1.69 | 0.34 | 1.57 | 1.09 | inactive |
| Trmt1 (GeneID 212528) | no change with or without drug | -0.45 | 0.51 | -0.67 | 0.9 | inactive |
| Mark3 (GeneID 17169) | no change with or without drug | 1.12 | -0.34 | 1.57 | 1.04 | inactive |
| Prss34 (GeneID 328780) | no change with or without drug | 0 | -1.01 | 0.9 | 0.94 | inactive |
| Ubac1 (GeneID 98766) | no change with or without drug | -0.11 | -0.17 | 0.11 | 0.93 | inactive |
| Tgs1 (GeneID 116940) | no change with or without drug | 0 | 0.84 | -0.45 | 0.94 | inactive |
| Eif2ak2 (GeneID 19106) | no change with or without drug | 0.67 | -0.17 | 0.9 | 1 | inactive |
| Vmn1r4 (GeneID 171194) | low cell count with doxorubicin only | -2.25 | -0.17 | -2.14 | 0.74 | active |
| Gnpat (GeneID 14712) | no change with or without drug | -1.46 | -1.52 | -0.45 | 0.81 | inactive |
| Rsph3a (GeneID 66832) | no change with or without drug | 0.34 | 1.85 | -0.67 | 0.97 | inactive |
| Mettl16 (GeneID 67493) | no change with or without drug | -0.22 | 0.34 | -0.34 | 0.92 | inactive |
| Egfl6 (GeneID 54156) | no change with or without drug | -0.22 | 0.51 | -0.45 | 0.92 | inactive |
| Rbms2 (GeneID 56516) | no change with or without drug | -1.57 | -0.51 | -1.24 | 0.8 | inactive |
| Reg1 (GeneID 19692) | low cell count with and without drug | -7.87 | -6.41 | -6.3 | 0.24 | inactive |
| Gosr1 (GeneID 53334) | no change with or without drug | -0.9 | -0.17 | -0.79 | 0.86 | inactive |
| Vopp1 (GeneID 232023) | no change with or without drug | -1.35 | -1.01 | -0.67 | 0.82 | inactive |
| Apcdd1 (GeneID 494504) | no change with or without drug | 0.67 | 1.01 | 0.11 | 1 | inactive |
| Nfkb2 (GeneID 18034) | no change with or without drug | -0.45 | -0.84 | 0.22 | 0.9 | inactive |
| Aprt (GeneID 11821) | no change with or without drug | 0 | -1.69 | 1.46 | 0.94 | inactive |
| U2surp (GeneID 67958) | no change with or without drug | 1.12 | 0.17 | 1.12 | 1.04 | inactive |
| Ino80b (GeneID 70020) | no change with or without drug | -0.22 | -1.18 | 0.79 | 0.92 | inactive |
| Ctps2 (GeneID 55936) | no change with or without drug | 1.01 | 0.67 | 0.67 | 1.03 | inactive |
| Pth2r (GeneID 213527) | high cell count with doxorubicin only | 2.02 | 0 | 2.25 | 1.12 | inactive |
| Hbb-b2 (GeneID 15130) | no change with or without drug | -0.22 | 1.18 | -0.9 | 0.92 | inactive |
| Cytip (GeneID 227929) | no change with or without drug | -0.22 | 0.51 | -0.45 | 0.92 | inactive |
